Measurements published in patent US6479280.
No constants are given. Whether binding was seen depends on the method and setting. Some entries that bind do so weakly or less than the wild type.

The chains behind the UniProt entries cited, without tags or fusion partners. Residues count along the entry.
UniProt P01012, residues 2-386: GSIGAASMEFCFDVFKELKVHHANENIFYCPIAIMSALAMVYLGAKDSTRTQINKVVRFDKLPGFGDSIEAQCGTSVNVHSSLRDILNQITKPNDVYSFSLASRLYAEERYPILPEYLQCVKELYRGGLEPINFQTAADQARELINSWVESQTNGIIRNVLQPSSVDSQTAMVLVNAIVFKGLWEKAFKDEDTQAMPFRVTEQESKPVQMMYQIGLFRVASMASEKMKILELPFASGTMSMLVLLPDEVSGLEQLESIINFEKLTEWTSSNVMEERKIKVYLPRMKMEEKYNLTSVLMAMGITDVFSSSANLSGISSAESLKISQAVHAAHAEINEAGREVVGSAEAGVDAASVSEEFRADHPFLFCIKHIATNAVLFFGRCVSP

Target: hen-egg ovalbumin (hen) (UniProt P01012)
Assay: biopanning on coated ovalbumin, then ELISA of periplasmic extracts for ovalbumin binders

binding: binds
B1: 1DBOVA1 (VHH, not shown: small tags and cut ends)
VHH: DVQLVESGGGSVPAGSLRLSCAVSGYTYENRYMAWFRQAPGKEREGVAAIWRGGNNPYYADSVKGRFTISQDNAKNIVSLLMNSLKPEDTAIYYCAAQAGRFSGPLYESTYDYWGQGTQVTVSS
